Literature values as cited in patent publication US20210121456A1, “USE OF METHYLNALTREXONE TO ATTENUATE TUMOR PROGRESSION” (Salix Pharmaceuticals, Inc., priority 2014, published 2021).
Structures can show the parent of a compound that is named as a salt. Where two headings read alike, the source gives them in different places. For at least one compound, name, drawing or mass did not settle the structure.

Conditions: cited from earlier work

SMILES	Factor for Morphine Equivalents in mgs	Factor for Morphine Equivalents in mgs (HYDROCHLORIDE)
CCC(=O)O[C@](Cc1ccccc1)(c1ccccc1)[C@H](C)CN(C)C [PROPDXYPHENE]	0.234 mgs	
CN1CC[C@]23c4c5ccc(O)c4O[C@H]2C(=O)CC[C@@]3(O)[C@H]1C5 [OXYMORPHONE HYDROCHLORIDE]		3 mgs
